PubChem BioAssay AID720505 | Drosophila RNAi Screening Center – 2013

- Assay: 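Fly regulators or components of the CRAC channel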 (primary screen)
- System: Drosophila S2R+ cells
- Reagents: long dsRNA against Drosophila genes
- Treatment: thapsigargin (2 µM) in calcium-free buffer to empty internal stores, then 2 mM calcium added back
- Measurement: 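Stores emptied by 2 µM thapsigargin without calcium, then 2 mM calcium re-added; fluo-4 fluorescence followed by FLIPR in 384-well plates, per-well averaged endpoint, raw; two screen passes, some wells retested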
- Reading the numbers: calcium signal and retest calcium signal: higher = more calcium entry after store depletion
- Active means: 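Knock-downs counted as hits when calcium entry dropped relative to STIM1 positive and Rho1 negative controls present on each plate; roughly 1500 genes called, with reductions of differing size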
- Calls: active = called as lowering calcium entry; inactive = not called
The screen tested about 20,000 reagents; this is a random part of those that have a named target and a result. In the full data, about 2,100 (10%) got an active call. 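Raw plate signals without normalisation; calls rest on control-based scores that were not deposited; replicate 2 separates called from uncalled poorly.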 No sequences are given here. The record does not give: the amount of reagent, the time to read-out.

no.	target	dsRNA	calcium signal, replicate 1	calcium signal, replicate 2	retest calcium signal, replicate 1	retest calcium signal, replicate 2	activity call
1	Gr39a (Gustatory receptor 39a)	DRSC01841	89.2	3837			inactive
2	Gr39a (Gustatory receptor 39a)	DRSC01842	116	5445			inactive
3	CG43058	DRSC05434	65.8	116			inactive
4	Cdc45 (Cell division cycle 45)	DRSC17747	106	139			inactive
5	Cdc45 (Cell division cycle 45)	DRSC18164	73.3	152			inactive
6	ATPsynG (ATP synthase, subunit G)	DRSC02928	119	147	68.2	81.3	inactive
7	CG8249	DRSC07125	128	114			inactive
8	Qsox3 (Quiescin sulfhydryl oxidase 3)	DRSC16096	149	158			inactive
9	Sin1 (SAPK-interacting protein 1)	DRSC05965	148	130			inactive
10	Ilk (Integrin linked kinase)	DRSC11868	96.3	124			inactive
11	Sap47 (Synapse-associated protein 47kD)	DRSC16850	84.2	156			inactive
12	CG7227	DRSC03032	119	191			inactive
13	CG6337	DRSC06977	121	190			inactive
14	CG6337	DRSC21870	95.4	173			inactive
15	CNMa (CNMamide)	DRSC08405	72.6	128			inactive
16	CtsL3 (Cathepsin L3)	DRSC12171	110	115			inactive
17	Cyp49a1 (Cytochrome P450 49a1)	DRSC06737	136	169			inactive
18	Cyp49a1 (Cytochrome P450 49a1)	DRSC07367	113	146			inactive
19	PIG-B (Phosphatidylinositol glycan anchor biosynthesis class B)	DRSC08216	80.9	108	149	109	inactive
20	PIG-B (Phosphatidylinositol glycan anchor biosynthesis class B)	DRSC22598	118	154			inactive
21	NfI (Nuclear factor I)	DRSC17158	68.1	145			inactive
22	CG16704	DRSC00475	150	85.5			inactive
23	CG5026	DRSC10470	65	100			active
24	CG34289	DRSC13625					inactive
25	Spx (Spliceosomal protein on the X)	DRSC18720	57.1	145			active
26	Npc1a (Niemann-Pick type C-1a)	DRSC03378	150	130			inactive
27	CG7560	DRSC10879	107	91.7			inactive
28	bumpel	DRSC16100	104	151			inactive
29	east (enhanced adult sensory threshold)	DRSC18770	136	134			inactive
30	Pgk (Phosphoglycerate kinase)	DRSC00769	179	147			inactive
31	Pgk (Phosphoglycerate kinase)	DRSC23340	90.2	126			inactive
32	Syb (Synaptobrevin)	DRSC07559	150	220			inactive
33	CG42818	DRSC01963	78.9	95			active
34	Decay (Death executioner caspase related to Apopain/Yama)	DRSC16930	128	149			inactive
35	Lcp65Ac	DRSC11210	123	117			inactive
36	scaf (scarface)	DRSC04849	127	97			inactive
37	ena (enabled)	DRSC05779	124	115			inactive
38	ena (enabled)	DRSC07610	94.7	131			inactive
39	ich (ichor)	DRSC14448	90.1	177			inactive
40	CG5909	DRSC15914	150	171			inactive
41	Mnn1 (Menin 1)	DRSC03368	195	122			inactive
42	CG6055	DRSC02923	167	99.4			inactive
43	Ir7g (Ionotropic receptor 7g)	DRSC18008	166	114			inactive
44	eIF4E4 (eukaryotic translation initiation factor 4E4)	DRSC09701	69.2	66.8			inactive
45	Tsp42El (Tetraspanin 42El)	DRSC06186	154	98.7			inactive
46	CG14852	DRSC14976	93.1	241			inactive
47	Blos2	DRSC10147	121	130			inactive
48	CG5504	DRSC04701	201	91			inactive
49	Lip2 (Lipase 2)	DRSC02577	78.7	108			active
50	Lip2 (Lipase 2)	DRSC02578	91.2	88			inactive
51	HP1e (Heterochromatin Protein 1e)	DRSC16379	52.8	107			active
52	CG15317	DRSC18005	115	92.3			inactive
53	ASPP	DRSC04305	109	119			inactive
54	ASPP	DRSC23069	108	74.9			inactive
55	CG18586	DRSC10325	103	84.8			inactive
56	Uch-L5 (Ubiquitin carboxy-terminal hydrolase L5)	DRSC11314	77.5	107			inactive

Active calls (from the list above):
target	dsRNA	calcium signal, replicate 1	calcium signal, replicate 2	retest calcium signal, replicate 1	retest calcium signal, replicate 2	activity call
CG5026	DRSC10470	65	100			active
Spx (Spliceosomal protein on the X)	DRSC18720	57.1	145			active
CG42818	DRSC01963	78.9	95			active
Lip2 (Lipase 2)	DRSC02577	78.7	108			active
HP1e (Heterochromatin Protein 1e)	DRSC16379	52.8	107			active
